Some of the results follow.
Tests used:
Test in all cases: log2 fold change, soluble protein after heating vs DMSO (PISA); higher = thermal stabilisation; K562 cells, 10 uM, 30 min; active = over 0.2 and 3.5 SD of the protein, either way, in both replicates (recomputed)
[1] = compound: NC(=O)Nc1cc(-c2cccc(F)c2)sc1C(=O)N[C@H]1CCCNC1
In short: (§1)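 K562 cells at 2×10^6 cells/mL were treated for 30 min with 10 μM compound, and aliquots were heated for 3 min over 48°C-58°C before pooling. Extraction used PBS with 0.5% NP-40 at 4°C, and soluble protein was the supernatant after 21,000xg for 90 min, measured by TMTpro 16plex LC-MS/MS with channel sums equalised. Thermal stability values, relative to control samples and from duplicates, are log2 fold changes.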

By UniProt entry, the sequences of proteins in these tests, tags left out. Where a name states a change or a piece, a line headed by the entry shows the natural chain unless it says otherwise.
UniProt Q92844: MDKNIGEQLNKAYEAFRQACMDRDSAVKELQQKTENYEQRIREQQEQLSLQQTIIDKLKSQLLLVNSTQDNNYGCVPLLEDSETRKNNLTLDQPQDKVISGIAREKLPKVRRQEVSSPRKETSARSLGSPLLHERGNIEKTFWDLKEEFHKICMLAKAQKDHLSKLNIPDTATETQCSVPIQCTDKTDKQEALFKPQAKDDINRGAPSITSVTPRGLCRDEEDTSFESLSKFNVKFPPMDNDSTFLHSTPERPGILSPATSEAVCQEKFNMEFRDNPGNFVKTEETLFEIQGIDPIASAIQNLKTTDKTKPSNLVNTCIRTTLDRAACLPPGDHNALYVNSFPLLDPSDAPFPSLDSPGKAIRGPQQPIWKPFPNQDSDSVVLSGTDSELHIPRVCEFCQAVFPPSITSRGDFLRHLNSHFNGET
UniProt P37837: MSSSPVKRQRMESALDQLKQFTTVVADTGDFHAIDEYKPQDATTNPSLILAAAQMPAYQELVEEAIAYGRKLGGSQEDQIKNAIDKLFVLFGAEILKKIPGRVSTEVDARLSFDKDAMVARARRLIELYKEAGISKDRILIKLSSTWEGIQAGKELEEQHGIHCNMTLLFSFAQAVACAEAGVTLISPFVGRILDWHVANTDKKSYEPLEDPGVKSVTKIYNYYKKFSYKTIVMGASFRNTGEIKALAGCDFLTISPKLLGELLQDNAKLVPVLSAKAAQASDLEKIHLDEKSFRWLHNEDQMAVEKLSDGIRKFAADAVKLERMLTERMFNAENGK
UniProt O43815: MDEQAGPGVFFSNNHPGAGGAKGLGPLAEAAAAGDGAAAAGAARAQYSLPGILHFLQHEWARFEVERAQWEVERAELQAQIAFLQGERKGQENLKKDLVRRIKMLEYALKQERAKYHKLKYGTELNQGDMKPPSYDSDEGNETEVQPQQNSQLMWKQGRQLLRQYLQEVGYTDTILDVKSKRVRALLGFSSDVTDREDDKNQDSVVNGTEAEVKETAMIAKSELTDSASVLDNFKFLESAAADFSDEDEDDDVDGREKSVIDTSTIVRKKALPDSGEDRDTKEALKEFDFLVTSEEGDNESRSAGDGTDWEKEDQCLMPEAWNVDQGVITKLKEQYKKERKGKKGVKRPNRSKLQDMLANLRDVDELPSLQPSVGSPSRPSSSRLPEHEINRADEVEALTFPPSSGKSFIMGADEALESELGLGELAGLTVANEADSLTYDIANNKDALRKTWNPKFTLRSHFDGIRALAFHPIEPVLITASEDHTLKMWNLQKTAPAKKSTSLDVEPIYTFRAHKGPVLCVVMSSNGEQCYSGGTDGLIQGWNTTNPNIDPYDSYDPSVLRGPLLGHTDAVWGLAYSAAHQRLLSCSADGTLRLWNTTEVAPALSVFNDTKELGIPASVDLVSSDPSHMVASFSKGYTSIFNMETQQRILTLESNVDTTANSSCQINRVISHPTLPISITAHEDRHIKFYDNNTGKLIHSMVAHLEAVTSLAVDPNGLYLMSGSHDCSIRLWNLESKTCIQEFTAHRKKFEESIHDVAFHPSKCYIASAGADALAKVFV
UniProt Q86VP1, whole entry, looked up: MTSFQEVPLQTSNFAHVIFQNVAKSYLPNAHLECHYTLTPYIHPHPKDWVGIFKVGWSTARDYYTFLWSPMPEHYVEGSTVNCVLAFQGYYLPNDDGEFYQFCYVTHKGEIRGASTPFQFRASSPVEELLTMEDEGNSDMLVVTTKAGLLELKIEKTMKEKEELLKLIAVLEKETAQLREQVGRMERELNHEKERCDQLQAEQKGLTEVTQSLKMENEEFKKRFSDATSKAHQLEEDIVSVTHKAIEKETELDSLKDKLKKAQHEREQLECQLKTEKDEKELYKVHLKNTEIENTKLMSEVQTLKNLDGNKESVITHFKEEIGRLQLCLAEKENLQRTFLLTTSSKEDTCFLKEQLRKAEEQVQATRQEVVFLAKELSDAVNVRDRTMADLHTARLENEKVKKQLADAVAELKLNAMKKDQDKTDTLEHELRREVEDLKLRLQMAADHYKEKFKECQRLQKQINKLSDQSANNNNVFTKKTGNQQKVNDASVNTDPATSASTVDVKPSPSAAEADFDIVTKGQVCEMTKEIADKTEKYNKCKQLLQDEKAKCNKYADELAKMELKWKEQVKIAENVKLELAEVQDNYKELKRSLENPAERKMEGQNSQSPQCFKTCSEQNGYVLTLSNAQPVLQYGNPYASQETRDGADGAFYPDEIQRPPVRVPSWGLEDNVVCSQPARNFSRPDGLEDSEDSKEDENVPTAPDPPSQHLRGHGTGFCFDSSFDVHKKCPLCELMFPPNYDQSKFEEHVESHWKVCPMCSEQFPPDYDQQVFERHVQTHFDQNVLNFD
UniProt Q9Y5B9, whole entry, looked up: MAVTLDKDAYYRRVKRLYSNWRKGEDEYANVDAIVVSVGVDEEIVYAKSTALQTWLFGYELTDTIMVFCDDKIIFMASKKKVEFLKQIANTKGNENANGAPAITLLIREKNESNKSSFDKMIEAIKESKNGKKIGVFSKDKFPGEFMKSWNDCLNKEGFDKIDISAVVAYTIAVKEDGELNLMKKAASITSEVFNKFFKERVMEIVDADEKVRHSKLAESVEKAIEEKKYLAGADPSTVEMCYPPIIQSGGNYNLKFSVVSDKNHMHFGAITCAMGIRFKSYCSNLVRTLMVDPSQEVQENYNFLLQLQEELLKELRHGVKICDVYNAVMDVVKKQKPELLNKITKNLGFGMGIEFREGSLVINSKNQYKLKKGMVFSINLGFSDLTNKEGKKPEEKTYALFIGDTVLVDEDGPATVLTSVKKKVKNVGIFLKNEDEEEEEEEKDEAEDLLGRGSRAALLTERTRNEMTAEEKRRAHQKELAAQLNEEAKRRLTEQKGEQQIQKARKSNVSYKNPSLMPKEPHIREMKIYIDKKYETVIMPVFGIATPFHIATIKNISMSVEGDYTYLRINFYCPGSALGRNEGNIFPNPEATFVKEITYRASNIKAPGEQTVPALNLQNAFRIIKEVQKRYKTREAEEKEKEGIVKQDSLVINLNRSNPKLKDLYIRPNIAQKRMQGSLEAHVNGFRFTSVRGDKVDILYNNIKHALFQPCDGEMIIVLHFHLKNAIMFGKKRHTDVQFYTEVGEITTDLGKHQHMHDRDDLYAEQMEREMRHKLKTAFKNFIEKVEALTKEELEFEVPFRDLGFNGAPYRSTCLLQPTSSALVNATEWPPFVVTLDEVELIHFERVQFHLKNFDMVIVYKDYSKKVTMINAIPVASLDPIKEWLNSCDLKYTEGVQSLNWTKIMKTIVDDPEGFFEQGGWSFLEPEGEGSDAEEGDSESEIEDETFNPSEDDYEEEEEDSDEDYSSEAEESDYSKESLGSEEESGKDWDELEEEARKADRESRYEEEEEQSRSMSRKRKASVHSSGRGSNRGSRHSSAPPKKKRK
UniProt Q96BW9: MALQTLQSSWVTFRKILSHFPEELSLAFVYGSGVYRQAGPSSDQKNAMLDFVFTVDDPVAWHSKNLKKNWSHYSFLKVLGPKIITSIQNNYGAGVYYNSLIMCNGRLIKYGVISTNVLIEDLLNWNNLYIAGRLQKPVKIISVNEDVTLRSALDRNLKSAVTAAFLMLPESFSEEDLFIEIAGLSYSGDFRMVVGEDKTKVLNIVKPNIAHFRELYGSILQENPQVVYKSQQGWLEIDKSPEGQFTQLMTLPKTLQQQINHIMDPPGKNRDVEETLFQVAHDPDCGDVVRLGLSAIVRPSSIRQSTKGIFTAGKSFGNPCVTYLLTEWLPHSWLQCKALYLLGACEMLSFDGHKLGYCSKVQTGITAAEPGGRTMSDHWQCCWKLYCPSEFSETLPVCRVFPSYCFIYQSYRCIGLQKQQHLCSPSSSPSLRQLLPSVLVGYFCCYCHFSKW
UniProt P27105: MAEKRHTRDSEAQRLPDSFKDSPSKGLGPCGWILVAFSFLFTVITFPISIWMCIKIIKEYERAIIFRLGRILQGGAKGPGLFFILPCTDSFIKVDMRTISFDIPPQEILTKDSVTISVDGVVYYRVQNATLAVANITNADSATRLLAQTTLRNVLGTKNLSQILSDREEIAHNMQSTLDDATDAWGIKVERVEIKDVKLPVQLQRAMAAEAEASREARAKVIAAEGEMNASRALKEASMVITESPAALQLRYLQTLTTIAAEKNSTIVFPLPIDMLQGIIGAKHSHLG
UniProt Q15833: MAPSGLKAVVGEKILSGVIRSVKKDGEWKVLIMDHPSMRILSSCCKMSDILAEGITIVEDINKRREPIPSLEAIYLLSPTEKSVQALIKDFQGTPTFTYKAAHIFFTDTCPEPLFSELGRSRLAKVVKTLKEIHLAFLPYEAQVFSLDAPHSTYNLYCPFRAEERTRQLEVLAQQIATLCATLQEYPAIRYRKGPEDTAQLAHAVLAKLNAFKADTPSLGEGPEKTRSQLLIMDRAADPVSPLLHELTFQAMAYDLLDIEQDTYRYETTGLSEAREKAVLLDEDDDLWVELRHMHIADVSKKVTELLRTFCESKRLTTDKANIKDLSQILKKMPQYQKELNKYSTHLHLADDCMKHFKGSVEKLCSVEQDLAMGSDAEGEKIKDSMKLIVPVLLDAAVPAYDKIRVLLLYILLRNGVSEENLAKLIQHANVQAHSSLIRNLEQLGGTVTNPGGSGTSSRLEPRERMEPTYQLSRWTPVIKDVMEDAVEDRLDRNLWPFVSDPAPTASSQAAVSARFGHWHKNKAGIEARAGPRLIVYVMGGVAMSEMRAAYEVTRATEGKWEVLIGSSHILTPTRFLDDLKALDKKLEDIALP
UniProt Q4KMP7: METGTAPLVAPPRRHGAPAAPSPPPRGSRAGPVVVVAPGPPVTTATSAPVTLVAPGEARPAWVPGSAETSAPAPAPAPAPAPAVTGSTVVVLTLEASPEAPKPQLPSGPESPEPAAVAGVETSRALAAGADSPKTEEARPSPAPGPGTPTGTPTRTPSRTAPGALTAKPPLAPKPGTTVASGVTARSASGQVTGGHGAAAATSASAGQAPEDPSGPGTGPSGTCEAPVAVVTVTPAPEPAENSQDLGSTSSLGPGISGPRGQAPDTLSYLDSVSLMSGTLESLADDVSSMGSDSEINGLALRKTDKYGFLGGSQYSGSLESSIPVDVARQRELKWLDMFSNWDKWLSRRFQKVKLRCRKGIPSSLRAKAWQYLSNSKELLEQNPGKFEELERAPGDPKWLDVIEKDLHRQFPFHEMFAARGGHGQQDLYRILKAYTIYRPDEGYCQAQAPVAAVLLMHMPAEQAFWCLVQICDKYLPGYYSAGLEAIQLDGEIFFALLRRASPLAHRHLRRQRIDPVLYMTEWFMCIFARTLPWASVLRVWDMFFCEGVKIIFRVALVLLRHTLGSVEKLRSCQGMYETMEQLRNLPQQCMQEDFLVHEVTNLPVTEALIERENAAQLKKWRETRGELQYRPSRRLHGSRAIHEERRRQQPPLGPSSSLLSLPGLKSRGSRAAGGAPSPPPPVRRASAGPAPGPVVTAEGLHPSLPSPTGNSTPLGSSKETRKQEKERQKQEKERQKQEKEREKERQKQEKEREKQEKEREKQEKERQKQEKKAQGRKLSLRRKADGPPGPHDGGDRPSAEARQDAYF
UniProt Q16594, whole entry, looked up: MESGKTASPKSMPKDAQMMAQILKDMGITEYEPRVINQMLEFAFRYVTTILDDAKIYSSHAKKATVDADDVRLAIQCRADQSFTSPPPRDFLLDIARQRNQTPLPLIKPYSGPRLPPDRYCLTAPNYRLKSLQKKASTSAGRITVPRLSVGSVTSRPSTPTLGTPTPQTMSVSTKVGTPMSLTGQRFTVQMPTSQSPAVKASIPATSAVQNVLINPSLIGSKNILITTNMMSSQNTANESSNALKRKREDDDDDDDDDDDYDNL
UniProt O94901, whole entry, looked up: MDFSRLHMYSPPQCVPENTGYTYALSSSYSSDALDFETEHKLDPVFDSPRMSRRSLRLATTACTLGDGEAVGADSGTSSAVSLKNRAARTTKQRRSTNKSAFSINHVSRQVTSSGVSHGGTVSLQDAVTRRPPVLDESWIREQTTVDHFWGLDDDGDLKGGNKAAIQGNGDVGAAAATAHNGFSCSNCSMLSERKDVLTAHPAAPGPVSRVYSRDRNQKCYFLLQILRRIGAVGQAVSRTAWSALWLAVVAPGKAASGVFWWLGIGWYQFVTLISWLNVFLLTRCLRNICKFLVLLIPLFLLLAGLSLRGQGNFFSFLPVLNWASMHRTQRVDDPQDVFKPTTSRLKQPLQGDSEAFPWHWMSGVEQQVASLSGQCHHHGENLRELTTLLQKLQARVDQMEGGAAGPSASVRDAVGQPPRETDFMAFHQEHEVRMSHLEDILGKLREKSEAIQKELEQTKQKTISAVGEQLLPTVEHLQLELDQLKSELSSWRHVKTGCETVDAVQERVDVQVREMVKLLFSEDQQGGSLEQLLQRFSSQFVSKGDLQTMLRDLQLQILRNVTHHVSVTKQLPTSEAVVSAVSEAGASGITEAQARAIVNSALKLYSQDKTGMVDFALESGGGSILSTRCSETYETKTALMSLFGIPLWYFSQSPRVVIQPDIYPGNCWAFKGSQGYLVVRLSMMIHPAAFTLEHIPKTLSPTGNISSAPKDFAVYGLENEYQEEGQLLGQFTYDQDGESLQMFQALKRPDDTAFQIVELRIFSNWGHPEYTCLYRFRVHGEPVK

[2] = compound: NC(=O)c1cnc(N[C@@H]2CCCC[C@@H]2N)nc1Nc1cccc(-n2nccn2)c1
In short: as §1

[3] = compound: NC1(c2ccc(-c3nc4ccn5c(=O)[nH]nc5c4cc3-c3ccccc3)cc2)CCC1
In short: as §1

[4] = compound: NCC(=O)Nc1ccc(-n2nc(C(F)(F)F)cc2-c2ccc3c(ccc4ccccc43)c2)cc1
In short: as §1

entinostat = compound: Nc1ccccc1NC(=O)c1ccc(CNC(=O)OCc2cccnc2)cc1 [entinostat]
In short: as §1

vorinostat = compound: O=C(CCCCCCC(=O)Nc1ccccc1)NO [vorinostat]
In short: as §1

citarinostat = compound: O=C(CCCCCCNC(=O)c1cnc(N(c2ccccc2)c2ccccc2Cl)nc1)NO [citarinostat]
In short: as §1

silmitasertib = compound: O=C(O)c1ccc2c(c1)nc(Nc1cccc(Cl)c1)c1ccncc12 [silmitasertib]
In short: as §1

[5] = compound: O=C1NC(=O)C(c2cnc3ccccn23)=C1c1cn2c3c(cc(F)cc13)CN(C(=O)N1CCCCC1)CC2
In short: as §1

[6] = compound: c1cc(OCCN2CCCCC2)cc(-c2n[nH]c3ccc(-c4nnc[nH]4)cc23)c1
In short: as §1

entospletinib = compound: c1cn2cc(-c3ccc4cn[nH]c4c3)nc(Nc3ccc(N4CCOCC4)cc3)c2n1 [entospletinib]
In short: as §1

Measured: log2 fold change

SUPT4H1 (UniProt P63272)
inactive: [1] 0.023 | [2] -0.085 | [3] 0.121 | [4] -0.042 | entinostat 0.019 | vorinostat -0.025 | citarinostat 0.034 | silmitasertib -0.156 | [5] -0.1 | [6] 0.053 | entospletinib 0.082

TANK (UniProt Q92844)
inactive: [1] 0.076 | [2] 0.041 | [3] -0.035 | [4] 0.023 | entinostat -0.001 | vorinostat -0.084 | citarinostat -0.022 | silmitasertib 0.064 | [5] 0.028 | [6] 0.01

TAOK1 (UniProt Q7L7X3)
inactive: [1] -0.043 | [2] -0.04 | [3] -0.063 | [4] -0.068 | entinostat -0.01 | vorinostat 0.048 | citarinostat 0 | silmitasertib -0.003 | [5] -0.038 | [6] -0.194

SYNE1 (UniProt Q8NF91)
inactive: [1] -0.006 | [2] -0.031 | [3] -0.008 | [4] 0.04 | entinostat -0.027 | vorinostat 0.114 | citarinostat 0.106 | silmitasertib -0.03 | [5] -0.244 | [6] 0.006

SUCLA2 (UniProt Q9P2R7)
inactive: [1] -0.021 | [2] -0.058 | [3] -0.128 | [4] -0.077 | entinostat 0.014 | vorinostat 0.107 | citarinostat 0.068 | silmitasertib -0.039 | [5] -0.028 | [6] -0.046

TALDO1 (UniProt P37837)
inactive: [1] 0 | [2] -0.042 | [3] -0.077 | [4] 0.002 | entinostat 0.022 | vorinostat 0.04 | citarinostat -0.01 | silmitasertib -0.078 | [5] -0.057 | [6] 0.02 | entospletinib -0.019

SURF2 (UniProt Q15527)
inactive: [1] 0.019 | [2] 0.076 | [3] 0.033 | [4] 0.088 | entinostat -0.012 | vorinostat -0.009 | citarinostat 0.06 | silmitasertib 0.079 | [5] -0.004 | [6] -0.018

STRN (UniProt O43815)
inactive: [1] -0.055 | [2] 0.019 | [3] -0.037 | [4] 0.019 | entinostat -0.008 | vorinostat 0.024 | citarinostat 0.028 | silmitasertib 0 | [5] -0.051 | [6] -0.031

STXBP5 (UniProt Q5T5C0)
inactive: [1] 0.006 | [2] -0.022 | [3] -0.145 | [4] -0.033 | entinostat -0.011 | vorinostat 0.004 | citarinostat 0.024 | silmitasertib 0.041 | [5] -0.04 | [6] -0.003

STK39 (UniProt Q9UEW8)
inactive: [1] -0.064 | [2] 0.034 | [3] -0.146 | [4] -0.028 | entinostat 0.069 | vorinostat 0.063 | citarinostat 0.051 | silmitasertib 0.003 | [5] 0.003 | [6] -0.072

SULT1A1 (UniProt P50225)
inactive: [1] -0.049 | [2] 0.039 | [3] -0.179 | [4] 0.123 | entinostat 0.133 | vorinostat 0.063 | citarinostat 0.056 | silmitasertib -0.038 | [5] -0.095 | [6] 0.032

SYF2 (UniProt O95926)
inactive: [1] 0.099 | [2] 0.089 | [3] -0.032 | [4] 0.101 | entinostat -0.022 | vorinostat -0.11 | citarinostat -0.069 | silmitasertib 0.016 | [5] 0.14 | [6] -0.153

TAX1BP1 (UniProt Q86VP1)
inactive: [1] 0.028 | [2] -0.062 | [3] -0.202 | [4] -0.102 | entinostat -0.013 | vorinostat -0.183 | citarinostat 0.061 | silmitasertib 0.042 | [5] -0.011 | [6] -0.081

SUCLG1 (UniProt P53597)
inactive: [1] -0.037 | [2] -0.077 | [3] -0.106 | [4] -0.059 | entinostat 0.012 | vorinostat 0 | citarinostat 0.043 | silmitasertib -0.037 | [5] -0.073 | [6] -0.049

SUPT16H (UniProt Q9Y5B9)
inactive: [1] -0.017 | [2] -0.111 | [3] -0.183 | [4] -0.158 | entinostat 0.207 | vorinostat 0.178 | citarinostat 0.198 | silmitasertib 0.109 | [5] -0.227 | [6] 0.025

TAMM41 isoform 3 (UniProt Q96BW9)
inactive: [1] 0.001 | [2] -0.052 | [3] -0.148 | [4] -0.059 | entinostat 0.022 | vorinostat 0.023 | citarinostat 0.013 | silmitasertib -0.004 | [5] -0.125 | [6] -0.043

STK4 (UniProt Q13043)
active: [1] 0.248
inactive: [2] -0.031 | [3] -0.1 | [4] 0.006 | entinostat -0.041 | vorinostat 0.011 | citarinostat 0.064 | silmitasertib -0.015 | [5] -0.031 | [6] -0.122

STOM (UniProt P27105)
inactive: [1] -0.104 | [2] -0.043 | [3] -0.069 | [4] -0.019 | entinostat -0.003 | vorinostat 0.025 | citarinostat 0.007 | silmitasertib 0.067 | [5] 0.042 | [6] -0.091

SUMO1 (UniProt P63165)
inactive: [1] -0.006 | [2] -0.116 | [3] 0.071 | [4] -0.074 | entinostat -0.01 | vorinostat -0.086 | citarinostat -0.063 | silmitasertib -0.012 | [5] 0.045 | [6] -0.087

STXBP2 isoform 3 (UniProt Q15833)
inactive: [1] -0.084 | [2] -0.066 | [3] -0.12 | [4] -0.051 | entinostat 0.035 | vorinostat 0.105 | citarinostat 0.046 | silmitasertib 0.112 | [5] 0.141 | [6] 0.036

TBC1D10B (UniProt Q4KMP7)
active: [6] -0.283
inactive: [1] -0.141 | [2] 0.007 | [3] 0.038 | [4] -0.027 | entinostat 0.017 | vorinostat -0.03 | citarinostat 0.039 | silmitasertib -0.009 | [5] -0.005

Random excerpt: 2 records from the list, in no set order.
STXBP2 isoform 3 (UniProt Q15833)
inactive: [1] -0.084 | [2] -0.066 | [3] -0.12 | [4] -0.051 | entinostat 0.035 | vorinostat 0.105 | citarinostat 0.046 | silmitasertib 0.112 | [5] 0.141 | [6] 0.036

STK4 (UniProt Q13043)
active: [1] 0.248
inactive: [2] -0.031 | [3] -0.1 | [4] 0.006 | entinostat -0.041 | vorinostat 0.011 | citarinostat 0.064 | silmitasertib -0.015 | [5] -0.031 | [6] -0.122

Further entries follow:

SUPT5H (UniProt O00267)
inactive: [1] -0.031 | [2] -0.049 | [3] -0.129 | [4] -0.095 | entinostat 0.029 | vorinostat 0.043 | citarinostat 0.074 | silmitasertib 0.038 | [5] -0.115 | [6] -0.028

TAF9 (UniProt Q16594)
active: entinostat -0.567
inactive: [1] -0.352 | [2] -0.026 | [3] 0.037 | [4] 0 | vorinostat 0.002 | citarinostat -0.043 | silmitasertib -0.039 | [5] -0.022 | [6] 0.055

SYMPK (UniProt Q92797)
inactive: [1] -0.018 | [2] 0.012 | [3] -0.287 | [4] -0.08 | entinostat 0.025 | vorinostat 0.11 | citarinostat 0.051 | silmitasertib 0.167 | [5] 0.033 | [6] -0.037

STMN3 (UniProt Q9NZ72)
inactive: [1] -0.124 | [2] -0.006 | [3] -0.004 | [4] 0.016 | entinostat -0.001 | vorinostat -0.012 | citarinostat 0.068 | silmitasertib -0.008 | [5] -0.012 | [6] 0.011 | entospletinib -0.003

SUN1 isoform 9 (UniProt O94901)
inactive: [1] -0.035 | [2] -0.073 | [3] -0.028 | [4] 0.102 | entinostat 0.18 | vorinostat 0.06 | citarinostat -0.115 | silmitasertib -0.009 | [5] -0.226 | [6] 0.075

TARS1 (UniProt P26639)
inactive: [1] -0.02 | [2] -0.079 | [3] -0.184 | [4] -0.04 | entinostat 0.02 | vorinostat 0.04 | citarinostat 0.035 | silmitasertib -0.019 | [5] -0.022 | [6] -0.018 | entospletinib 0.001

STK38L (UniProt Q9Y2H1)
inactive: [1] -0.046 | [2] -0.015 | [3] -0.117 | [4] 0.078 | entinostat 0.109 | vorinostat 0.02 | citarinostat 0.036 | silmitasertib 0.101 | [5] -0.078 | [6] 0.05

STX7 (UniProt O15400)
inactive: [1] 0.036 | [2] -0.02 | [3] -0.072 | [4] 0.011 | entinostat -0.028 | vorinostat -0.093 | citarinostat -0.002 | silmitasertib 0.017 | [5] -0.006 | [6] 0.079

TARBP1 (UniProt Q13395)
inactive: [1] -0.033 | [2] 0.048 | [3] -0.027 | [4] 0.014 | entinostat -0.044 | vorinostat 0.003 | citarinostat 0.079 | silmitasertib 0.034 | [5] 0.053 | [6] 0
